Experimental data: publication PMC5615076
No constants are given. Whether binding was seen depends on the method and setting. Binding seen in cells or lysates may run through a third protein. A result given as binding can be weak or reduced; the word gives no strength. Sequences can lack the tags named with a protein.

Target: GIRK2A wild type
Assay: co-IP; HEK293T cells co-transfected with HA-GIRK1 and GIRK2A WT or Y353X (doubled plasmid for Y353X); IP with rabbit anti-GIRK2 N-terminal antibodies; blot with anti-HA; band ratio HA-GIRK1/GIRK2A normalised to GIRK2A WT

B1: GIRK1 with extracellular HA tag (HA-GIRK1) (protein, UniProt P63251 1-501)
chain: MSALRRKFGDDYQVVTTSSSGSGLQPQGPGQGPQQQLVPKKKRQRFVDKNGRCNVQHGNLGSETSRYLSDLFTTLVDLKWRWNLFIFILTYTVAWLFMASMWWVIAYTRGDLNKAHVGNYTPCVANVYNFPSAFLFFIETEATIGYGYRYITDKCPEGIILFLFQSILGSIVDAFLIGCMFIKMSQPKKRAETLMFSEHAVISMRDGKLTLMFRVGNLRNSHMVSAQIRCKLLKSRQTPEGEFLPLDQLELDVGFSTGADQLFLVSPLTICHVIDAKSPFYDLSQRSMQTEQFEVVVILEGIVETTGMTCQARTSYTEDEVLWGHRFFPVISLEEGFFKVDYSQFHATFEVPTPPYSVKEQEEMLLMSSPLIAPAITNSKERHNSVECLDGLDDISTKLPSKLQKITGREDFPKKLLRMSSTTSEKAYSLGDLPMKLQRISSVPGNSEEKLVSKTTKMLSDPMSQSVADLPPKLQKMAGGPTRMEGNLPAKLRKMNSDRFT
In the case of B1, the binding is reported as “binds”.
